The test system of this assay is short-term memory. Kind of assay: passive avoidance test in a "Skinner box": reversal of scopolamine-induced blocking of the short-term memory. It counts as in vivo, rats. Conditions: scopolamine 0.3 mg/kg i.p. and distilled water p.o.; during 3-4 hours.

These results are taken from patent US4883815A, “Hydrocinnamic acid derivatives” (Hoffmann-La Roche Inc., priority 1987, dated 1989).

As to `CN1[C@@H]2C[C@@H](OC(=O)[C@H](CO)c3ccccc3)C[C@H]1[C@@H]1O[C@@H]12` [scopolamine], the “animals with retrograde effect on the short-term memory (have forgotten to remain on the platform)” value is 85-92%.
